Laboratory results taken from the supplement of paper PMC12819154, “High-throughput peptide-centric local stability assay extends protein–ligand identification to membrane proteins, tissues and bacteria” (Nature Structural & Molecular Biology, 2025).
This is one part of the list. Most values lie at the level of the controls, where differences are scatter.

Protein sequences, listed by entry. Tags and fused reporters are not part of them. Lines headed by an entry give the natural chain unless they say otherwise; changes in a name come on top.
UniProt Q9D1G1: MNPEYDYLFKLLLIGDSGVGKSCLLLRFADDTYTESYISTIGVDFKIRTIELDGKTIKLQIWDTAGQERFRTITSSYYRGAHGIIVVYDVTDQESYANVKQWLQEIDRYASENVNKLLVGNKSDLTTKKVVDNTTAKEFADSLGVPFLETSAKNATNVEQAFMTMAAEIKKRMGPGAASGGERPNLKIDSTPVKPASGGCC
UniProt Q9DB42: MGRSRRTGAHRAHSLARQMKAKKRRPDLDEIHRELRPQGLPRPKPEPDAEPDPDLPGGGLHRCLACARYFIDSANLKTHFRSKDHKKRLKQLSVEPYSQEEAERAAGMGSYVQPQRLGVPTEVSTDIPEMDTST
UniProt Q9D1H6: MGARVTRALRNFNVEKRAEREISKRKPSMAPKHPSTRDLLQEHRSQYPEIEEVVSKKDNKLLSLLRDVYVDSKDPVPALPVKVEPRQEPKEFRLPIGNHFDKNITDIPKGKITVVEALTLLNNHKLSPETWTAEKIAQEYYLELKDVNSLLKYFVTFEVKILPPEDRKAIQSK
UniProt Q9DA03: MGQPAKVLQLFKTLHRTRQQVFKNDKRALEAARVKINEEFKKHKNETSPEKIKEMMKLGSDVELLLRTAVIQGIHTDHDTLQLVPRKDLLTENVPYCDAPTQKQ
UniProt Q9CZA6: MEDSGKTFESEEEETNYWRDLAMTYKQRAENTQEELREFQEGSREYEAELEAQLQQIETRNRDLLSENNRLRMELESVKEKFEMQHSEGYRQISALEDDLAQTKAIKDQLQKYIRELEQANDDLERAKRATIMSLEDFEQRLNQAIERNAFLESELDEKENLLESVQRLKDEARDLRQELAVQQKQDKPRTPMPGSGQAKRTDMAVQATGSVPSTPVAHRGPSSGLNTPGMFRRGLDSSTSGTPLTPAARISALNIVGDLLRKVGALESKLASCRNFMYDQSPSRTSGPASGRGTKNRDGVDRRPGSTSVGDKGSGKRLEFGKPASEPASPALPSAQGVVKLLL
UniProt Q9D7J9: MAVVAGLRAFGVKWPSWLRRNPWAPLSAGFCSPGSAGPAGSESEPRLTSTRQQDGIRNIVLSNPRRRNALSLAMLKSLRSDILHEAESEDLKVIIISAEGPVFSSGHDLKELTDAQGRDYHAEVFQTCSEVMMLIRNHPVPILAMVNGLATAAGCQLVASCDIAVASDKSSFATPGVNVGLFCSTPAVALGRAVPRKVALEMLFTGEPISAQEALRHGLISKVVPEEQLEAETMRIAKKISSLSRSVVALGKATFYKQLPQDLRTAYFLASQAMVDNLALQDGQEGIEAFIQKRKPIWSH
UniProt Q9D6R2: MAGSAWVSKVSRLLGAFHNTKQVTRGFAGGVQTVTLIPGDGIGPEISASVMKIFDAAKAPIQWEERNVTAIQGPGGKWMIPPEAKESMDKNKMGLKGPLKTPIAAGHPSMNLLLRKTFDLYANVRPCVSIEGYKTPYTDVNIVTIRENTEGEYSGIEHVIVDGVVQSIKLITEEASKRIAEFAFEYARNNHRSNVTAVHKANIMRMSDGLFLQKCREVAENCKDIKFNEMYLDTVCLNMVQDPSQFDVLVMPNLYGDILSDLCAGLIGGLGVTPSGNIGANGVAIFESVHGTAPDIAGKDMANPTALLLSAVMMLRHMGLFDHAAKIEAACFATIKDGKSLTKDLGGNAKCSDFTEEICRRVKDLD
UniProt Q9D1C3: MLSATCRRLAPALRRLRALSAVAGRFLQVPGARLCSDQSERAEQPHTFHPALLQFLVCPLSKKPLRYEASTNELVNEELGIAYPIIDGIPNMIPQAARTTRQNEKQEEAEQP
UniProt Q9D8X0: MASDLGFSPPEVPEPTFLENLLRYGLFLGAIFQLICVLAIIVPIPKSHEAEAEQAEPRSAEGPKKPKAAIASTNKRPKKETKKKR
UniProt Q9D4H8: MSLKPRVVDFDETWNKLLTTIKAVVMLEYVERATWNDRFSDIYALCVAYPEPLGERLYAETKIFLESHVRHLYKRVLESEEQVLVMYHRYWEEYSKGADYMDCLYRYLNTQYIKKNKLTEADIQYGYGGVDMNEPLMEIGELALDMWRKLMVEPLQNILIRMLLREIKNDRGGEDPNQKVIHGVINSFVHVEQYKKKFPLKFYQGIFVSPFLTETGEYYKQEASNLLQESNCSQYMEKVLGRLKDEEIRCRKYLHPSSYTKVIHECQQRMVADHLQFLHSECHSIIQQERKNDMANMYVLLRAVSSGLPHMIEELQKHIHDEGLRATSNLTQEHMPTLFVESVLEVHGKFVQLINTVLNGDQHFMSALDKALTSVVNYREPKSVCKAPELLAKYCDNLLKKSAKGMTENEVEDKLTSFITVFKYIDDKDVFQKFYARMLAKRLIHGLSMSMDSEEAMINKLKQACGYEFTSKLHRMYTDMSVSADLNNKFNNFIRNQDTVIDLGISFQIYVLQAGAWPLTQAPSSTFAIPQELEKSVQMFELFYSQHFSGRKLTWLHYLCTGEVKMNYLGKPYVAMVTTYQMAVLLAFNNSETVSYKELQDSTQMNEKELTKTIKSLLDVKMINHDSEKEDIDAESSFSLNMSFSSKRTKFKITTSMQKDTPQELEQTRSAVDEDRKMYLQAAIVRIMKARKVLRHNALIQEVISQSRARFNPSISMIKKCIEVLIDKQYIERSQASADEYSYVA
UniProt Q9D1E6: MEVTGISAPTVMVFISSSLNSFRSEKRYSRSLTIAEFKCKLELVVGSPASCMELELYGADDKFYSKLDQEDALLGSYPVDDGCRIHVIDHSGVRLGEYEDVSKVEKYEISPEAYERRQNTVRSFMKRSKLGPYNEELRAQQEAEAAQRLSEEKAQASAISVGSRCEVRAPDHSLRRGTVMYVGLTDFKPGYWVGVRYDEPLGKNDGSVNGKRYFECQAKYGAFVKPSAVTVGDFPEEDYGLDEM
UniProt Q9CYR0: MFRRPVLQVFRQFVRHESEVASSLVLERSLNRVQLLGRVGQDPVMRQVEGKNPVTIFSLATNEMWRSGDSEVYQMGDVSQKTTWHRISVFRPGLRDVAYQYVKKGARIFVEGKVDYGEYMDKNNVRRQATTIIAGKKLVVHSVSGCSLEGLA
UniProt Q9D2R6: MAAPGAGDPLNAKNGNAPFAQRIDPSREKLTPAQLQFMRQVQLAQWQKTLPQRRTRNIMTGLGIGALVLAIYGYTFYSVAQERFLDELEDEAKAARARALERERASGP
UniProt Q9D8U8: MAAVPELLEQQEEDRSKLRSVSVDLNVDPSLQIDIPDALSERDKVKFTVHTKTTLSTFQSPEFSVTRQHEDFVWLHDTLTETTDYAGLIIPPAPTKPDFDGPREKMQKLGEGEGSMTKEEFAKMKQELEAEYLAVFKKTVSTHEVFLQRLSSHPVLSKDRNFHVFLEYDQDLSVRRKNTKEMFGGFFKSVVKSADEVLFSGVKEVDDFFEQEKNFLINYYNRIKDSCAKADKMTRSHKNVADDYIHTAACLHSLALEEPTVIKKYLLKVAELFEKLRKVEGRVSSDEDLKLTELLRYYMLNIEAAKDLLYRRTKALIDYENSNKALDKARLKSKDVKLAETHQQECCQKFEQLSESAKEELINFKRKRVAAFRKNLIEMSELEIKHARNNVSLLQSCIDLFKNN
UniProt Q9D958: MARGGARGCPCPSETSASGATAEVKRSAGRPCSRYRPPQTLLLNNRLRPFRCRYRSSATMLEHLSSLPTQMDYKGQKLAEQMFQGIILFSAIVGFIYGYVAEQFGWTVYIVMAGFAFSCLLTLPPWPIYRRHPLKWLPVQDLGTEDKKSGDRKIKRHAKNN
UniProt Q9CYI0: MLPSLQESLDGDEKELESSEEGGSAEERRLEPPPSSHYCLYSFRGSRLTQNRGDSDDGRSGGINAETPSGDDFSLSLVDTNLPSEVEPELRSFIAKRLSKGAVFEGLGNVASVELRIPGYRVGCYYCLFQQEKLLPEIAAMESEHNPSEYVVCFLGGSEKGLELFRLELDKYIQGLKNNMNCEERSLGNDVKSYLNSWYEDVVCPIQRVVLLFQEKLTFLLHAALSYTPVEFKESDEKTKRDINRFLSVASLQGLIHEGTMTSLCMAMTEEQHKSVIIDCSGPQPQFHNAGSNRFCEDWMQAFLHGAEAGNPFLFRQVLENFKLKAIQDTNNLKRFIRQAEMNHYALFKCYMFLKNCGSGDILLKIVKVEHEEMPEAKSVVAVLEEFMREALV
UniProt Q9CZN7: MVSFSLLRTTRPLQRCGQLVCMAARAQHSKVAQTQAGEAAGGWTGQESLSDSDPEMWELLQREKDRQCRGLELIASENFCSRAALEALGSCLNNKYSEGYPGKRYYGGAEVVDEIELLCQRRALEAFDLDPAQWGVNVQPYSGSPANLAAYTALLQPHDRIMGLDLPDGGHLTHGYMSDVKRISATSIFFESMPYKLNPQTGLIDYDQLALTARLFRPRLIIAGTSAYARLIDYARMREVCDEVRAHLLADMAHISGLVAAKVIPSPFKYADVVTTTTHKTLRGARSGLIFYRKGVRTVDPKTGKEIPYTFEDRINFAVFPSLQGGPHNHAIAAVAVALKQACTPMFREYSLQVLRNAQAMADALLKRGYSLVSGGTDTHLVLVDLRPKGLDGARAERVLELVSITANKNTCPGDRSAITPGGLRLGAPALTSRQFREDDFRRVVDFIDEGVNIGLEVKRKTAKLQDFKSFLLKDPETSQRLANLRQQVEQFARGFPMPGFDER
UniProt Q9DBR1: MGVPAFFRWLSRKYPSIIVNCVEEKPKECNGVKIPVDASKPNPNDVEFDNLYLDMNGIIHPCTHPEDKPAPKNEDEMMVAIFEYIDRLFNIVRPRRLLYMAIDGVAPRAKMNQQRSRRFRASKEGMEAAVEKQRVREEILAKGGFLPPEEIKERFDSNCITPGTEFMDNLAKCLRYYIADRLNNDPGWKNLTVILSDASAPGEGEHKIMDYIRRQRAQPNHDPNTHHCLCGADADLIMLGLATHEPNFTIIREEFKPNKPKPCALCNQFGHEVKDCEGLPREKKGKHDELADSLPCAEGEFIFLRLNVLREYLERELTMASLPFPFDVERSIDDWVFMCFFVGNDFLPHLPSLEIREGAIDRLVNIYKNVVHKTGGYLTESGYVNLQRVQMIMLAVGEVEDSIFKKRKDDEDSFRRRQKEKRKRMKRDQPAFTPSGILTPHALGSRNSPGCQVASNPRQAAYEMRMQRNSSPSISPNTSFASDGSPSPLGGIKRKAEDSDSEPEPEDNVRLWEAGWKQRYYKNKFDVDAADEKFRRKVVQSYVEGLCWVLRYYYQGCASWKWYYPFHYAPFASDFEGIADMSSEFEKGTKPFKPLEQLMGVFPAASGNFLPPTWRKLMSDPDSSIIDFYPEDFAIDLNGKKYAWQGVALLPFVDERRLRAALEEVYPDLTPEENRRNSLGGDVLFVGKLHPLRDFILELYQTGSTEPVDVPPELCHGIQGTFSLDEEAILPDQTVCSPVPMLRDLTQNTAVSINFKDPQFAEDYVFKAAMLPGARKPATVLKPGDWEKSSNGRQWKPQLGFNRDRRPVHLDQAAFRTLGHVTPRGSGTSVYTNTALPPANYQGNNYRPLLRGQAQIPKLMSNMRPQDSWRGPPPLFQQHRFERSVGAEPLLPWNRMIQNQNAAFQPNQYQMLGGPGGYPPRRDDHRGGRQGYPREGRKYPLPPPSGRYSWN
UniProt Q9D3P8: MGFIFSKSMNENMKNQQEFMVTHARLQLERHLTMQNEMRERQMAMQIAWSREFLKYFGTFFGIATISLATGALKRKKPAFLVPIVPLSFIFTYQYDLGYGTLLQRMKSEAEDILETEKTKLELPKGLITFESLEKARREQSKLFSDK
UniProt Q9D820: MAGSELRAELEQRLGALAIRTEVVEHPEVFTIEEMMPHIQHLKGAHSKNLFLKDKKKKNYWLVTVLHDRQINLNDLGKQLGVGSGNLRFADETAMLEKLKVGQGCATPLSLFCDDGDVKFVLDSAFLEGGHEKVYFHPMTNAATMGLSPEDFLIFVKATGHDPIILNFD
UniProt Q9D0B8: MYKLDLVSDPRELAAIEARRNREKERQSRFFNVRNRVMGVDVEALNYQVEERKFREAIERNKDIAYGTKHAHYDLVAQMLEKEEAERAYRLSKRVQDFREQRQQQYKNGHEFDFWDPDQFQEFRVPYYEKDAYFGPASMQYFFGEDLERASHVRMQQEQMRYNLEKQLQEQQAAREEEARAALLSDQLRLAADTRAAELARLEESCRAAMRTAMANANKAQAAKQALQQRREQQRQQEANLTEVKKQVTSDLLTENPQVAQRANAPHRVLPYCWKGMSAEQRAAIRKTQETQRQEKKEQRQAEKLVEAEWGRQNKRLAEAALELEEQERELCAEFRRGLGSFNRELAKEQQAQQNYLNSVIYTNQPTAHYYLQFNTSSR
UniProt Q9D964: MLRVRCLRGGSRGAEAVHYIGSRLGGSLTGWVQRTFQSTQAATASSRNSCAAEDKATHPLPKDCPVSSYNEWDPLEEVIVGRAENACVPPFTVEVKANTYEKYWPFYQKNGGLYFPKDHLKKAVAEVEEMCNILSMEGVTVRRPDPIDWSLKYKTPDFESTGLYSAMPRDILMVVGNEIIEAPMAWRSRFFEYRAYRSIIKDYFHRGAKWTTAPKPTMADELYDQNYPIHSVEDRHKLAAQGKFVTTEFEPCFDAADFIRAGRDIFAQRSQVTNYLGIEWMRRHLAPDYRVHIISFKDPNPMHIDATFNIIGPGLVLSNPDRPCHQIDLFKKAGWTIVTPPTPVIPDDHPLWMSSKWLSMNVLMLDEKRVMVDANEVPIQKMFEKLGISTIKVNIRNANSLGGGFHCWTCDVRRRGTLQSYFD

Compound: CN[C@@H]1C[C@H]2O[C@@](C)([C@@H]1OC)n1c3ccccc3c3c4c(c5c6ccccc6n2c5c31)C(=O)NC4 [staurosporine]
Experiment: log2 fold change of pooled soluble protein (PISA), ligand vs vehicle (log2 ratio); higher = more thermally stabilized
Settings: ligand concentration: 20 uM; assay format: PISA pool 52.9/55.5/58.6 C

Target | log2 fold change of pooled soluble protein
UniProt Q9D1G1 | 0.244
UniProt Q9CZR2 | 0.146
UniProt Q9DB27 | -0.0387
UniProt Q9DB42 | -0.0239
UniProt Q9D1H6 | 0.0816
UniProt Q9D7P6 | -0.0224
UniProt Q9DA03 | -0.29
UniProt Q9CZA6 | 0.115
UniProt Q9D7J9 | -0.037
UniProt Q9D6R2 | 0.0319
UniProt Q9D1C3 | -0.324
UniProt Q9DB15 | 0.0891
UniProt Q9D8X0 | 0.198
UniProt Q9D4H8 | -0.376
UniProt Q9D0A3 | 0.005
UniProt Q9DAW6 | 0.0699
UniProt Q9CXK9 | -0.0853
UniProt Q9D1E6 | -0.00903
UniProt Q9CYR0 | -0.000328

Target | log2 fold change of pooled soluble protein
UniProt Q9D8W7 | -0.0572
UniProt Q9D2R6 | -0.0399
UniProt Q9DBS5 | -0.106
UniProt Q9D8U8 | -0.0186
UniProt Q9D958 | 0.0113
UniProt Q9D0B0 | 0.0148
UniProt Q9CYI0 | 0.000665
UniProt Q9CZN7 | -0.00775
UniProt Q9DBR1 | 0.0154
UniProt Q9D3P8 | 0.0862
UniProt Q9D820 | -0.0378
UniProt Q9D8X2 | 0.0209
UniProt Q9D0B8 | -0.0281
UniProt Q9CZW5 | -0.0256
UniProt Q9D5J6 | 0.109
UniProt Q9D074 | 0.00318
UniProt Q9CZL5 | 0.0999
UniProt Q9D964 | -0.032

Individual results from the entries so far.
UniProt Q9D3P8 | log2 fold change of pooled soluble protein: 0.0862
UniProt Q9D1G1 | log2 fold change of pooled soluble protein: 0.244
